Experimental data as given in PubChem BioAssay AID504834 (National Center for Advancing Translational Sciences (NCATS), 2011).
Out of some 320,000 compounds screened, about 22,000 (6.9%) were called active. Inconclusive results, whose numbers are uncertain, are shown with a selection of clear calls. The call rests on the fitted dose curve; in most records, active means well fitted inhibition curve with a large enough effect; inconclusive means small, poorly fitted or top-dose-only effect, or another doubt; inactive means no such curve, though single readings can be large or run the other way. A potency beside an inconclusive call is a rough fit, not a confirmed value.
On the % scale 0 is the no-effect control and ±100 the full control effect; potency means the concentration at half of the fitted maximal effect.

Test: Primary qHTS for delayed death inhibitors of the malarial parasite plastid, 96 hour incubation
Details: P. falciparum luciferase reporter growth; series mostly up to 28.7 µM; activity change, negative = inhibition: at the top concentration
In short: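 Plates of compound plus infected erythrocytes (2% hematocrit, 0.05% parasitemia final) incubate 96 hours, 37 C, 5% CO2. Detection reagent added; reduced luminescence from the parasites' luciferase reporter flags inhibition.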
In the case of `CC(=O)Nc1ccc(N=C(C2=C(O)c3ccccc3C2=O)c2ccccc2)cc1`, the Potency is reported as inconclusive: 20.8 µM [inhibitor, partial curve, poor fit].
For `CCOc1ccc(C(F)(F)F)cc1NC(=O)COc1ccc(C(F)(F)F)cc1[N+](=O)[O-]`, the Potency was inconclusive: 1.65 µM [inhibitor, partial curve].
For `CCOC(=O)C1=C(COC(=O)C(CC)Oc2ccccc2)NC(=O)NC1C` (centres undefined), the “activity change, negative = inhibition” value was inactive: 49.7%.
For `Cc1c(NS(=O)(=O)c2ccc(C(=O)NCc3ccccc3)cc2)c(=O)n(-c2ccccc2)n1C`, the “activity change, negative = inhibition” value was inactive: -11.2%.
In the case of `CC(NC(=O)c1ccccc1OC(F)F)c1ccc(-n2ccnc2)cc1` (centres undefined), the Potency is reported as active: 11.7 µM.
With `CC(C)CC(COCc1ccc(C(F)(F)F)cc1)N1CCN(C(=O)c2ccc(C(F)(F)F)cc2)CCC1=O` (centres undefined) the Potency was inconclusive: 13.1 µM [inhibitor, single point].
With `COCCCn1c(=O)c2ccccc2n(Cc2ccccc2)c1=O` the Potency was inconclusive: 9.28 µM [inhibitor, single point].
For `CC(=O)Nc1cc(Cl)ccc1OS(=O)(=O)c1ccc(C)cc1`, the “activity change, negative = inhibition” value was inactive: 279%.
In the case of `O=C(CNC(=O)c1cccc(Br)c1)N/N=C/c1cccnc1`, the “activity change, negative = inhibition” value is reported as inactive: 17.3%.
In the case of `COc1ccc(C2C(C#N)=C(C)NC3=C2S(=O)(=O)c2ccccc23)cc1` (centres undefined), the “activity change, negative = inhibition” value is reported as inactive: -22.2%.
For `CCN1CCN(Cc2ccc(NC(=O)c3ccc(C)c(NC(=O)c4cccc(-c5cn[nH]c(=O)c5)c4)c3)cc2C(F)(F)F)CC1`, the Potency was active: 1.47 µM.
In the case of `CCOc1cc(S(=O)(=O)NCc2ccc(OC)cc2)c(OCC)cc1-n1cnnn1`, the Potency is reported as inconclusive: 18.5 µM [inhibitor, single point].
For `COCC1CCN(Cc2nc(Cc3ccccc3Cl)no2)CC1`, the Potency was inconclusive: 18.5 µM [inhibitor, single point].
For `O=C(COc1cccnc1[N+](=O)[O-])Nc1ccc(S(=O)(=O)N2CCOCC2)cc1`, the Potency was inconclusive: 3.7 µM [inhibitor, partial curve, poor fit].
For `Cc1ccc(C)c(S(=O)(=O)N2CCCC2CNC(=O)C(=O)NCc2cccs2)c1` (centres undefined), the Potency was inconclusive: 13.1 µM [inhibitor, single point].
For `O=C(N/N=C/C=C\c1ccccc1[N+](=O)[O-])c1ccco1`, the Potency was inconclusive: 0.0928 µM [inhibitor, full curve, poor fit].
In the case of `Cc1ccnc2nc(C(=O)OC(C)C(=O)NCc3ccccc3)nn12` (centres undefined), the “activity change, negative = inhibition” value is reported as inactive: 9.41%.
For `C=CCSc1nc(O)c(C2OC(=O)c3c2ccc(OC)c3OC)c(=O)n1-c1ccccc1` (centres undefined), the “activity change, negative = inhibition” value was inactive: 23.1%.
With `CC(C)Cn1c(SCC(=O)N2CCc3ccccc3C2)nc2cc(Cl)ccc2c1=O` the Potency was active: 4.65 µM.
With `CC(Sc1ccccc1)C(=O)NN=C1CCCCCC1` (centres undefined) the Potency was inconclusive: 5.86 µM [inhibitor, partial curve, poor fit].
For `CC(C)CC(=O)Nc1cccc(-c2csc(-c3ccccc3)n2)c1`, the Potency was active: 6.57 µM.
With `Cc1ccc(NC(=O)C2CC2c2ccccc2)c([N+](=O)[O-])c1` (centres undefined) the Potency was inconclusive: 10.4 µM [inhibitor, single point].
In the case of `O=C(N/N=C/c1cccnc1)C1CC1(c1ccccc1)c1ccccc1` (centres undefined), the “activity change, negative = inhibition” value is reported as inactive: -4.45%.
With `COc1ccc(OC)c(NC(=O)c2nc(-c3ccccc3)oc2C)c1` the “activity change, negative = inhibition” value was inactive: 35.8%.
With `CC(C)[C@H](NC(=O)C1CCN(S(=O)(=O)c2ccccc2)CC1)C(=O)NCc1ccccc1` the Potency was inconclusive: 18.5 µM [inhibitor, single point].
With `O=S(=O)(c1ccc2nc(SCc3ccc(Cl)cc3)[nH]c2c1)N1CCOCC1` the Potency was inconclusive: 14.7 µM [inhibitor, single point].
With `COc1ccc(-c2nnc(SCC(=O)Nc3cc(S(=O)(=O)N4CCCCC4)ccc3Cl)n2N)cc1` the Potency was inconclusive: 11.7 µM [inhibitor, single point].
In the case of `COc1cc2[nH]c(C(=O)N3CCN(c4ccccc4F)CC3)cc2c(OC)c1OC`, the Potency is reported as inconclusive: 14.7 µM [inhibitor, single point].
For `CC(C)COc1ccc(C(=O)Nc2scc(-c3ccc(Cl)cc3Cl)c2C(N)=O)cc1`, the Potency was inconclusive: 8.28 µM [inhibitor, partial curve, poor fit].
In the case of `COc1ccc(S(=O)(=O)N2CCCCC2)cc1Br`, the “activity change, negative = inhibition” value is reported as inactive: -13.7%.
With `Cc1c(C)n2c(SCC(=O)N3CCOCC3)nnc2[nH]c1=O` the Potency was inconclusive: 6.57 µM [inhibitor, partial curve, poor fit].
With `CN(C)C(=O)Oc1ccc(-c2nnco2)cc1` the Potency was inconclusive: 0.928 µM [inhibitor, partial curve, poor fit].
In the case of `O=C(NCCc1ccccc1)C1(c2ccccc2)CC1(Cl)Cl` (centres undefined), the Potency is reported as inconclusive: 0.208 µM [inhibitor, full curve, poor fit].
For `CCOC(=O)C1=C(O)/C(=C/c2cn(CC(=O)N3CCCC3)c3ccccc23)SC1=Nc1ccccc1`, the Potency was active: 3.29 µM.
For `CCc1ccc(C(C)NC(=S)NCc2ccc(F)cc2)cc1` (centres undefined), the Potency was active: 14.7 µM.
With `COc1ccccc1CCC(=O)N(Cc1ccccc1)c1c(N)n(Cc2ccccc2)c(=O)[nH]c1=O` the Potency was active: 8.28 µM.
With `O=C(NCCCN1CCOCC1)C(c1ccccc1)c1ccccc1` the “activity change, negative = inhibition” value was inactive: 14.4%.
In the case of `CSc1ccc(/C=N\NC(=O)CC(=O)NC(C)C)cc1`, the Potency is reported as inconclusive: 9.28 µM [inhibitor, partial curve].
In the case of `CCOC(=O)c1c(NC(=O)c2cc(-c3cccc(O)c3)on2)sc(C(C)=O)c1C`, the Potency is reported as inconclusive: 13.1 µM [inhibitor, single point].
For `Cc1ccc(Cn2c(SCC(=O)NCc3ccco3)nc3ccsc3c2=O)cc1`, the Potency was inconclusive: 18.5 µM [inhibitor, single point].
With `Cc1cc(S(=O)(=O)NCC(c2ccc3c(c2)OCO3)N2CCOCC2)ccc1F` (centres undefined) the Potency was active: 14.7 µM.
In the case of `CC(=O)c1c(N2CCN(Cc3ccccc3)CC2)nc(=S)n(Cc2ccccc2)c1C`, the “activity change, negative = inhibition” value is reported as inactive: -4.39%.
For `CSCc1c(C(=O)NCCc2ccccn2)oc2ccccc12`, the Potency was inconclusive: 16.5 µM [inhibitor, partial curve, poor fit].
For `O=C(COC(=O)CN1C(=O)COc2ccccc21)NC1CCCCC1`, the Potency was inconclusive: 5.22 µM [inhibitor, partial curve, poor fit].
